# Measured values as given in patent US10060907B2, “Redoxindicators” (priority 2014, dated 2018).
# At least one structure is not confirmed: it was looked up by name or label, or the drawing left a doubt.
# Tests used:
# [1] = UV/Vis spectra of the redoxindicators, oxidized form; assay type: physicochemical; conditions: 50 mM phosphate buffer pH = 7
# [2] = Reaction of an indicator with NADH, UV/Vis of the reduced form; assay type: physicochemical; conditions: 50 mM phosphate buffer pH = 7
# Method: The following were mixed in a cuvette: 50 μL of 10 mM solution of an indicator (1-methyl-3-[(E)-2-(1,3,3-trimethyl-3H-indolium-2-yl)ethenyl]quinolinium iodide trifluoromethanesulfonate) in distilled water, 950 μL of 50 mM phosphate buffer pH 7, 2 μL of 10 mM NADH solution in distilled water. A UV/Vis spectrum (400-1000 nm) was recorded every 7.5 sec for a 1 min after addition of NADH (resolution 2 nm) (FIG. 1). No further color change could be measured after 52.5 sec.
structure (smiles),measurement,setting,value
CC[n+]1cc(/C=C2\CCC[N+]3=C2C(C)(C)c2ccccc23)cc2ccccc21,"UV/Vis oxidized form, λmax",[1],"361, 237, 212 nm"
same,"UV/Vis reduced form, λmax after reduction with NADH",[2],"550, 530sh. nm"
same,UV-Vis λmax after reduction with NADH,[2]; Cl^− form,"550, 530sh nm"
